In US20190343860A1 (Saint Louis University, priority 2016, published 2019):

Test system: CHO cells
Experiment: Raman microscopy of intracellular drug location in CHO cells
Assay type: cell-based

SMILES | Intracellular accumulation (Raman, ~2220 cm−1 region) (1 μM) | Intracellular accumulation (Raman, ~2220 cm−1 region) (0.2 μM) | Localization relative to mitochondrial cytochrome c signal (750 cm−1) (0.25 μM)
CNC(=O)[C@@]12C[C@@H]1[C@@H](n1cnc3c(NC)nc(C#Cc4ccc(Cl)s4)nc31)[C@H](O)[C@@H]2O [MRS5980] | appears to be enriched in a subset of the intracellular space |  | 
CNC(=O)[C@@]12C[C@@H]1[C@@H](n1cnc3c(NCc4cccc(Cl)c4)nc(C#Cc4ccc(F)c(F)c4)nc31)[C@H](O)[C@@H]2O [MRS5698] |  | appears to be enriched in a subset of the intracellular space | localizes in intracellular regions corresponding to the mitochondrial cytochrome c signal
